# Data taken from the supplement of paper PMC8728848.
# The list shows a part of the results.
# B1: CLEC9a (Mus musculus), Q8BRU4 (protein)
# chain: MHAEEIYTSLQWDIPTSEASQKCQSPSKCSGAWCVVTMISCVVCMGLLATSIFLGIKFFQVSSLVLEQQERLIQQDTALVNLTQWQRKYTLEYCQALLQRSLHSGSDCSPCPHNWIQNGKSCYYVFERWEMWNISKKSCLKEGASLFQIDSKEEMEFISSIGKLKGGNKYWVGVFQDGISGSWFWEDGSSPLSDLLPAERQRSAGQICGYLKDSTLISDKCDSWKYFICEKKAFGSCI
# Legend:
# Experiment in all cases: glycan array binding signal (z-score within array); higher = stronger binding
# Conditions in all cases: glycan notation: IUPAC condensed, linker removed
# Fuc(a1-2)[Gal(a1-3)]Gal = biological target: Fuc(a1-2)[Gal(a1-3)]Gal
# Summary of the method: (§1)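 The binding signal is a Z-score computed within each array. Data were drawn from 3228 arrays in the Consortium for Functional Glycomics database, restricted to those with a known protein sequence. Scores were averaged over arrays of the same protein sequence at different concentrations or buffers, and over linkers, and negative values can be taken as non-binding.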
# [1] = biological target: Fuc(a1-2)[Gal(a1-3)]Gal(b1-3)GlcNAc
# Summary of the method: as §1
# [2] = biological target: Fuc(a1-2)[Gal(a1-3)]Gal(b1-3)GlcNAc(b1-2)Man(a1-3)[Fuc(a1-2)[Gal(a1-3)]Gal(b1-3)GlcNAc(b1-2)Man(a1-6)]Man(b1-4)GlcNAc(b1-4)GlcNAc
# Summary of the method: as §1
# [3] = biological target: Fuc(a1-2)[Gal(a1-3)]Gal(b1-4)Glc
# Summary of the method: as §1
# [4] = biological target: Fuc(a1-2)[Gal(a1-3)]Gal(b1-4)GlcNAc
# Summary of the method: as §1
# [5] = biological target: Fuc(a1-2)[Gal(a1-3)]Gal(b1-4)GlcNAc(b1-2)Man(a1-3)[Fuc(a1-2)[Gal(a1-3)]Gal(b1-4)GlcNAc(b1-2)Man(a1-6)]Man(b1-4)GlcNAc(b1-4)GlcNAc
# Summary of the method: as §1
# [6] = biological target: Fuc(a1-2)[Gal(a1-3)]Gal(b1-4)[Fuc(a1-3)]GlcNAc
# Summary of the method: as §1
# [7] = biological target: Fuc(a1-2)[Gal(a1-4)]Gal(b1-4)GlcNAc
# Summary of the method: as §1
# [8] = biological target: Fuc(a1-2)[GalNAc(a1-3)]Gal
# Summary of the method: as §1
# [9] = biological target: Fuc(a1-2)[GalNAc(a1-3)]Gal(b1-3)GalNAc(a1-3)[Fuc(a1-2)]Gal(b1-4)GlcNAc
# Summary of the method: as §1
# [10] = biological target: Fuc(a1-2)[GalNAc(a1-3)]Gal(b1-3)GlcNAc
# Summary of the method: as §1
# [11] = biological target: Fuc(a1-2)[GalNAc(a1-3)]Gal(b1-3)GlcNAc(b1-2)Man(a1-3)[Fuc(a1-2)[GalNAc(a1-3)]Gal(b1-3)GlcNAc(b1-2)Man(a1-6)]Man(b1-4)GlcNAc(b1-4)GlcNAc
# Summary of the method: as §1
# [12] = biological target: Fuc(a1-2)[GalNAc(a1-3)]Gal(b1-4)Glc
# Summary of the method: as §1
# [13] = biological target: Fuc(a1-2)[GalNAc(a1-3)]Gal(b1-4)GlcNAc
# Summary of the method: as §1
# [14] = biological target: Fuc(a1-2)[GalNAc(a1-3)]Gal(b1-4)GlcNAc(b1-2)Man(a1-3)[Fuc(a1-2)[GalNAc(a1-3)]Gal(b1-4)GlcNAc(b1-2)Man(a1-6)]Man(b1-4)GlcNAc(b1-4)GlcNAc
# Summary of the method: as §1
# [15] = biological target: Fuc(a1-2)[GalNAc(a1-3)]Gal(b1-4)GlcNAc(b1-3)Gal(b1-4)GlcNAc
# Summary of the method: as §1
# [16] = biological target: Fuc(a1-2)[GalNAc(a1-3)]Gal(b1-4)GlcNAc(b1-3)Gal(b1-4)GlcNAc(b1-3)Gal(b1-4)GlcNAc
# Summary of the method: as §1
# [17] = biological target: Fuc(a1-2)[GalNAc(a1-3)]Gal(b1-4)[Fuc(a1-3)]GlcNAc
# Summary of the method: as §1
# [18] = biological target: Fuc(a1-2)[GalNAc(a1-4)]Gal(b1-4)GlcNAc
# Summary of the method: as §1
# [19] = biological target: Fuc(a1-2)[GalNAc(b1-3)]Gal
# Summary of the method: as §1
# Fuc(a1-3)GlcNAc = biological target: Fuc(a1-3)GlcNAc
# Summary of the method: as §1
# [20] = biological target: Fuc(a1-3)[Gal(b1-4)]Glc6S
# Summary of the method: as §1
# [21] = biological target: Fuc(a1-3)[Gal(b1-4)]GlcNAc
# Summary of the method: as §1
# [22] = biological target: Fuc(a1-3)[Gal(b1-4)]GlcNAc(b1-2)Man(a1-3)[Fuc(a1-3)[Gal(b1-4)]GlcNAc(b1-2)Man(a1-6)]Man(b1-4)GlcNAc(b1-4)GlcNAc
# Summary of the method: as §1
# [23] = biological target: Fuc(a1-3)[Gal(b1-4)]GlcNAc(b1-3)Gal(b1-3)[Fuc(a1-4)]GlcNAc
# Summary of the method: as §1
# [24] = biological target: Fuc(a1-3)[Gal(b1-4)]GlcNAc(b1-3)GalNAc
# Summary of the method: as §1
# [25] = biological target: Fuc(a1-3)[Gal(b1-4)]GlcNAc(b1-4)Gal(b1-4)[Fuc(a1-3)]GlcNAc
# Summary of the method: as §1
# [26] = biological target: Fuc(a1-3)[Gal(b1-4)]GlcNAc(b1-4)Gal(b1-4)[Fuc(a1-3)]GlcNAc(b1-4)Gal(b1-4)[Fuc(a1-3)]GlcNAc
# Summary of the method: as §1
# [27] = biological target: Fuc(a1-3)[Gal(b1-4)]GlcNAc(b1-6)[Gal(b1-3)GlcNAc(b1-3)]Gal(b1-4)Glc
# Summary of the method: as §1
# [28] = biological target: Fuc(a1-3)[Gal(b1-4)]GlcNAc6S
# Summary of the method: as §1
binder,measurement,setting,value
B1,glycan array binding signal (z-score),Fuc(a1-2)[Gal(a1-3)]Gal,0.982
same,glycan array binding signal (z-score),[1],1.05
same,glycan array binding signal (z-score),[2],3.03
same,glycan array binding signal (z-score),[3],1.11
same,glycan array binding signal (z-score),[4],0.738
same,glycan array binding signal (z-score),[5],-0.072
same,glycan array binding signal (z-score),[6],-0.146
same,glycan array binding signal (z-score),[7],0.057
same,glycan array binding signal (z-score),[8],0.956
same,glycan array binding signal (z-score),[9],0.06
same,glycan array binding signal (z-score),[10],0.627
same,glycan array binding signal (z-score),[11],0.379
same,glycan array binding signal (z-score),[12],0.468
same,glycan array binding signal (z-score),[13],0.134
same,glycan array binding signal (z-score),[14],-0.982
same,glycan array binding signal (z-score),[15],-0.874
same,glycan array binding signal (z-score),[16],-0.724
same,glycan array binding signal (z-score),[17],-1.38
same,glycan array binding signal (z-score),[18],1.48
same,glycan array binding signal (z-score),[19],-0.241
same,glycan array binding signal (z-score),Fuc(a1-3)GlcNAc,-0.051
same,glycan array binding signal (z-score),[20],0.238
same,glycan array binding signal (z-score),[21],0.79
same,glycan array binding signal (z-score),[22],1.74
same,glycan array binding signal (z-score),[23],0.143
same,glycan array binding signal (z-score),[24],0.322
same,glycan array binding signal (z-score),[25],1.06
same,glycan array binding signal (z-score),[26],-0.403
same,glycan array binding signal (z-score),[27],-0.886
same,glycan array binding signal (z-score),[28],-0.966

# Quoted at random: two records from the list
binder,measurement,setting,value
B1,glycan array binding signal (z-score),[1],1.05
same,glycan array binding signal (z-score),[14],-0.982
